# The list is a part of this screen's results and no random one: its compounds were picked by chemical class. Other doses and runs of a compound may be missing. T/C gives the treated animals as a percentage of the vehicle group. Some entries give survivors of the animals treated and no T/C: the source files T/C as zero there, which appears to mark a toxic dose or a test without result, not a measured value. Some survivor counts are full or nearly so, which does not show that the dose was tolerated: survival well below the control is almost never listed, so the zero probably covers shortened survival too. Survivors were counted at the toxicity check, usually on the fifth day, unless a day is given; later deaths do not show. Schedule codes are those of the source, taken here to give the interval after Q, in days (D) or hours (H), and the number of doses after X. Some schedules carry Z or #; the key to these is not given. For survival time, the PubChem record calls one and a half times the control and up active, and a quarter to a half above the control has no call in these data; cut-offs in other NCI protocols can differ. Some entries were tested several times; the results are listed from low to high. Some T/C values are marked as having no survivor count here; that says nothing about deaths at the dose. Some T/C values are followed by the survivors on the day toxicity was checked, most often the fifth; where neither a count nor a note follows, no animal had died by that day.
# System: CD2F1 mice, L1210 leukemia ip, survival T/C
# Assay: NCI In Vivo Anticancer Drug Screen. Data for tumor model L1210 Leukemia (intraperitoneal) in CD2F1 (CDF1) mice
# Settings: T/C endpoint: mean survival time, higher T/C = longer survival
# Summary of the method: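 Ratio T/C, where T is the treated-group value and C the vehicle-dosed control value, from mice implanted with a transplantable tumor.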
# [1] = dose: 100.0 mg/kg/injection, schedule: Q01DX009 (ip), vehicle: saline
# [2] = dose: 200.0 mg/kg/injection, schedule: Q01DX009 (ip), vehicle: saline
# [3] = dose: 64.0 mg/kg/injection, schedule: Q01DX009 (ip), vehicle: saline
# [4] = dose: 100.0 mg/kg/injection, schedule: Q04DX003 (ip), vehicle: saline
# [5] = dose: 200.0 mg/kg/injection, schedule: Q04DX003 (ip), vehicle: saline
# [6] = dose: 400.0 mg/kg/injection, schedule: Q04DX003 (ip), vehicle: saline
# [7] = dose: 75.0 mg/kg/injection, schedule: Q01DX001 (ip), vehicle: saline
# [8] = dose: 150.0 mg/kg/injection, schedule: Q01DX001 (ip), vehicle: saline
# [9] = dose: 300.0 mg/kg/injection, schedule: Q01DX001 (ip), vehicle: saline
compound,measurement,setting,value
C[As](=O)(O)O,T/C,"dose: 12.5 mg/kg/injection, schedule: Q01DX009 (ip), vehicle: saline",96 % of control
same,T/C,"dose: 25.0 mg/kg/injection, schedule: Q01DX009 (ip), vehicle: saline",101 % of control
same,T/C,"dose: 50.0 mg/kg/injection, schedule: Q01DX009 (ip), vehicle: saline",108 % of control
CP(=O)(O)O,T/C,[1],107 % of control [survivor count not shown]
same,T/C,[2],93 % of control [survivor count not shown]
CN(N=O)C(=N)N[N+](=O)[O-],T/C,"dose: 8.0 mg/kg/injection, schedule: Q01DX009 (ip), vehicle: saline",112 and 122 % of control
same,T/C,"dose: 10.0 mg/kg/injection, schedule: Q01DX007 (ip), vehicle: saline",127 % of control
same,T/C,"dose: 10.0 mg/kg/injection, schedule: Q01DX009 (ip), vehicle: saline",112 % of control
same,T/C,"dose: 10.0 mg/kg/injection, schedule: Q03DX003 (ip), vehicle: saline",122 % of control
same,T/C,"dose: 10.0 mg/kg/injection, schedule: Q04DX003 (ip), vehicle: saline",118 % of control
same,T/C,"dose: 16.0 mg/kg/injection, schedule: Q01DX009 (ip), vehicle: saline",123 and 147 % of control
same,T/C,"dose: 20.0 mg/kg/injection, schedule: Q01DX007 (ip), vehicle: saline",125 % of control
same,T/C,"dose: 20.0 mg/kg/injection, schedule: Q01DX009 (ip), vehicle: saline",131 % of control
same,T/C,"dose: 20.0 mg/kg/injection, schedule: Q03DX003 (ip), vehicle: saline",121 % of control
same,T/C,"dose: 20.0 mg/kg/injection, schedule: Q04DX003 (ip), vehicle: saline",120 % of control
same,T/C,"dose: 32.0 mg/kg/injection, schedule: Q01DX009 (ip), vehicle: saline",125 and 134 % of control
same,survivor count,"dose: 40.0 mg/kg/injection, schedule: Q01DX007 (ip), vehicle: saline",6 of 6
same,T/C,"dose: 40.0 mg/kg/injection, schedule: Q01DX009 (ip), vehicle: saline",90 % of control
same,T/C,"dose: 40.0 mg/kg/injection, schedule: Q03DX003 (ip), vehicle: saline",107 % of control
same,T/C,"dose: 40.0 mg/kg/injection, schedule: Q04DX003 (ip), vehicle: saline",134 % of control
same,T/C,[3],114 % of control [5 of 6 alive]
same,survivor count,[3],6 of 6
Cc1cc([N+](=O)[O-])cc([N+](=O)[O-])c1,T/C,"dose: 100.0 mg/kg/injection, schedule: Q04DX002 (ip), vehicle: Klucel (hydroxypropylcellulose) (HPC)",97 % of control [survivor count not shown]
same,T/C,"dose: 200.0 mg/kg/injection, schedule: Q04DX002 (ip), vehicle: Klucel (hydroxypropylcellulose) (HPC)",105 % of control [survivor count not shown]
same,T/C,"dose: 400.0 mg/kg/injection, schedule: Q04DX002 (ip), vehicle: Klucel (hydroxypropylcellulose) (HPC)",90 % of control [survivor count not shown]
CCOC(=O)C(CCSC)NC(=O)OCCNCCCl (stereo not given),T/C,"dose: 25.0 mg/kg/injection, schedule: Q04DX003 (ip), vehicle: saline",105 % of control
same,T/C,"dose: 40.0 mg/kg/injection, schedule: Q01DX Z (ip), vehicle: saline",94 % of control
same,T/C,"dose: 50.0 mg/kg/injection, schedule: Q04DX003 (ip), vehicle: saline",125 % of control
same,T/C,"dose: 52.0 mg/kg/injection, schedule: Q01DX001 (ip), vehicle: saline",106 % of control
same,T/C,"dose: 78.0 mg/kg/injection, schedule: Q01DX001 (ip), vehicle: saline",106 % of control
same,T/C,"dose: 80.0 mg/kg/injection, schedule: Q01DX Z (ip), vehicle: saline",105 % of control
same,T/C,[4],121 % of control
same,T/C,"dose: 117.0 mg/kg/injection, schedule: Q01DX001 (ip), vehicle: saline",104 % of control
same,T/C,"dose: 160.0 mg/kg/injection, schedule: Q01DX Z (ip), vehicle: saline",111 % of control
same,T/C,"dose: 176.0 mg/kg/injection, schedule: Q01DX001 (ip), vehicle: saline",128 % of control
same,survivor count,"dose: 176.0 mg/kg/injection, schedule: Q04DX003 (ip), vehicle: saline",6 of 6
same,T/C,[5],120 % of control
same,T/C,"dose: 264.0 mg/kg/injection, schedule: Q01DX001 (ip), vehicle: saline",124 % of control
same,survivor count,"dose: 264.0 mg/kg/injection, schedule: Q04DX003 (ip), vehicle: saline",4 of 6
same,T/C,"dose: 320.0 mg/kg/injection, schedule: Q01DX Z (ip), vehicle: saline",89 % of control [5 of 6 alive]
same,T/C,"dose: 400.0 mg/kg/injection, schedule: Q01DX001 (ip), vehicle: saline",131 % of control
same,survivor count,[6],0 of 6
same,T/C,"dose: 600.0 mg/kg/injection, schedule: Q01DX001 (ip), vehicle: saline",141 % of control [5 of 6 alive]
same,survivor count,"dose: 600.0 mg/kg/injection, schedule: Q04DX003 (ip), vehicle: saline",0 of 6
same,survivor count,"dose: 640.0 mg/kg/injection, schedule: Q01DX Z (ip), vehicle: saline",0 of 6
O=C(Cl)Oc1ccccc1,T/C,[7],95 % of control
same,T/C,[8],106 % of control
same,T/C,[9],101 % of control
Cc1cn(C2CC3OP(C)(=O)OCC3O2)c(=O)[nH]c1=O (stereo not given),T/C,"dose: 12.5 mg/kg/injection, schedule: Q01DX005 (ip), vehicle: water",102 % of control
same,T/C,"dose: 25.0 mg/kg/injection, schedule: Q01DX005 (ip), vehicle: water",101 % of control
same,T/C,"dose: 50.0 mg/kg/injection, schedule: Q01DX005 (ip), vehicle: water",111 % of control
same,T/C,"dose: 100.0 mg/kg/injection, schedule: Q01DX005 (ip), vehicle: water",101 % of control
same,T/C,"dose: 200.0 mg/kg/injection, schedule: Q01DX005 (ip), vehicle: water",107 % of control
N#CSc1ccc([N+](=O)[O-])cc1[N+](=O)[O-],T/C,[1],97 % of control
same,survivor count,[2],0 of 6
same,survivor count,"dose: 400.0 mg/kg/injection, schedule: Q01DX009 (ip), vehicle: saline",0 of 6
Cc1cc(Cl)ccc1Nc1c([N+](=O)[O-])cc([N+](=O)[O-])cc1[N+](=O)[O-],T/C,[4],100 % of control [survivor count not shown]
same,T/C,[5],100 % of control [survivor count not shown]
same,T/C,[6],103 % of control [survivor count not shown]
O=P1(N(CCCl)CCCl)OCCO1,T/C,"dose: 62.5 mg/kg/injection, schedule: Q01DX001 (ip), vehicle: water",112 % of control
same,T/C,"dose: 110.0 mg/kg/injection, schedule: Q01DX001 (ip), vehicle: water",103 % of control
same,T/C,"dose: 125.0 mg/kg/injection, schedule: Q01DX001 (ip), vehicle: water",116 % of control
same,T/C,"dose: 167.0 mg/kg/injection, schedule: Q01DX001 (ip), vehicle: water",114 % of control
same,T/C,"dose: 250.0 mg/kg/injection, schedule: Q01DX001 (ip), vehicle: water",111 and 128 % of control
same,survivor count,"dose: 375.0 mg/kg/injection, schedule: Q01DX001 (ip), vehicle: water",3 of 6
same,survivor count,"dose: 500.0 mg/kg/injection, schedule: Q01DX001 (ip), vehicle: water",2 of 6
CCN(CC)CCOC(=O)C(O)(c1ccccc1)c1c(C)c(C)cc(C)c1C (stereo not given),T/C,[7],101 % of control
same,T/C,[8],98 % of control
same,T/C,[9],98 % of control
CS(=O)(=O)OC1CSCCc2ccccc21 (stereo not given),survivor count,"dose: 100.0 mg/kg/injection, schedule: Q01DX001 (ip), vehicle: carboxymethylcellulose (CMC)",1 of 4
same,survivor count,"dose: 200.0 mg/kg/injection, schedule: Q01DX001 (ip), vehicle: carboxymethylcellulose (CMC)",2 of 4
same,survivor count,"dose: 400.0 mg/kg/injection, schedule: Q01DX001 (ip), vehicle: carboxymethylcellulose (CMC)",1 of 4
CCCCNCCN(CCCC)C(=N)C(=N)N(CCCC)CCNCCCC.O=[N+]([O-])c1cc([N+](=O)[O-])c(O)c([N+](=O)[O-])c1,T/C,"dose: 50.0 mg/kg/injection, schedule: Q04DX002 (ip), vehicle: saline with Tween-80",96 % of control
same,T/C,"dose: 100.0 mg/kg/injection, schedule: Q04DX002 (ip), vehicle: saline with Tween-80",96 % of control
same,T/C,"dose: 200.0 mg/kg/injection, schedule: Q04DX002 (ip), vehicle: saline with Tween-80",89 % of control
